No constants are given. Whether binding was seen depends on the method and setting. In cells and extracts the contact can be indirect. Some results given as binding are weak or reduced against the parent protein; the word gives no strength. Tags and fused reporters may be left off the sequences shown.
Target: T1, FLAG-tagged NDP52 (nuclear dot protein 52 / calcium binding and coiled-coil domain protein, CALCOCO2) (UniProt Q13137)
T1 sequence: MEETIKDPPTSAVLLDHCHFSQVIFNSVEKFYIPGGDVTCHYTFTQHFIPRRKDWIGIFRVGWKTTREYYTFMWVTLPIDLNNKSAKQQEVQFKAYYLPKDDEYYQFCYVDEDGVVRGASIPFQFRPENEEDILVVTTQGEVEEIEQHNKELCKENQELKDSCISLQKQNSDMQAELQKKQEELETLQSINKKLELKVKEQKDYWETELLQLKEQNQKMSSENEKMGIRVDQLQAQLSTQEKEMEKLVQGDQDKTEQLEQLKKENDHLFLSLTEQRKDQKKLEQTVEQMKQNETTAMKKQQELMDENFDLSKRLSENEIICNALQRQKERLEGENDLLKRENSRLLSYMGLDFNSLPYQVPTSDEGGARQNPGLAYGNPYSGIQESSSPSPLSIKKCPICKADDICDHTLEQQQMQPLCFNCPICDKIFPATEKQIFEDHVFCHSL
Assay: co-IP; HEK293T co-transfected for 48 h with pcDNA-FLAG-NDP52 and a GFP construct; lysis buffer 150 mM NaCl, 10 mM Tris pH 7.4, 1 mM EDTA, 1% Triton X-100, 0.5% NP-40; FLAG mouse antibody overnight at 4°C, protein G magnetic beads; immunoblot

binding: binds
B1: GFP-tagged Pat1b (protein, UniProt Q86TB9 1-770)
chain: MFRYESLEDCPLDEDEDAFQGLGEEDEEIDQFNDDTFGSGAVDDDWQEAHERLAELEEKLPVAVNEQTGNGERDEMDLLGDHEENLAERLSKMVIENELEDPAIMRAVQTRPVLQPQPGSLNSSIWDGSEVLRRIRGPLLAQEMPTVSVLEYALPQRPPQGPEDDRDLSERALPRRSTSPIIGSPPVRAVPIGTPPKQMAVPSFTQQILCPKPVHVRPPMPPRYPAPYGERMSPNQLCSVPNSSLLGHPFPPSVPPVLSPLQRAQLLGGAQLQPGRMSPSQFARVPGFVGSPLAAMNPKLLQGRVGQMLPPAPGFRAFFSAPPSATPPPQQHPPGPGPHLQNLRSQAPMFRPDTTHLHPQHRRLLHQRQQQNRSQHRNLNGAGDRGSHRSSHQDHLRKDPYANLMLQREKDWVSKIQMMQLQSTDPYLDDFYYQNYFEKLEKLSAAEEIQGDGPKKERTKLITPQVAKLEHAYKPVQFEGSLGKLTVSSVNNPRKMIDAVVTSRSEDDETKEKQVRDKRRKTLVIIEKTYSLLLDVEDYERRYLLSLEEERPALMDDRKHKICSMYDNLRGKLPGQERPSDDHFVQIMCIRKGKRMVARILPFLSTEQAADILMTTARNLPFLIKKDAQDEVLPCLLSPFSLLLYHLPSVSITSLLRQLMNLPQSAATPALSNPHLTAVLQNKFGLSLLLILLSRGEDLQSSDPATESTQNNQWTEVMFMATRELLRIPQAALAKPISIPTNLVSLFSRYVDRQKLNLLETKLQLVQGIR

From publication PMC9876383
